# Taken from: PubChem BioAssay AID1224827 (NIAID, 2016)
# Test: 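Retest primary hits on a TNF reporter with six siRNAs per gene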 (follow-up of hits)
# System: RAW264.7 G9 mouse macrophage reporter clone
# Knock-down reagent: single siRNA against mouse genes, 100 nM siRNA
# Duration: siRNA for 2 days, then LPS about 16 h
# Challenge: bacterial lipopolysaccharide (LPS), 10 ng/ml, cells fixed after overnight (about 16 h) stimulation
# Measured: 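TNF promoter reporter red fluorescence in nuclei, background subtracted, normalised per plate and to non-targeting control siRNA, as z-scores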
# Direction: TNF reporter z-score, mean: higher = stronger Tnf promoter reporter signal
# Active means: 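Active siRNA: replicate-mean z-score of 2 or more, or -2 or less; no calls for control wells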
# Here is an unselected part of about 3,800 reagents. Over the whole deposit, about 2,200 (57%) got an active call. 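Active means a strong reporter change in either direction; calls are per siRNA, not per gene; qiagen siRNAs gave weaker effects.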 The numbers tell different reagents against one gene apart. Further read-outs or replicates are left out here. Reagent sequences are not shown.
target gene,reagent,"TNF reporter z-score, mean",Outcome
"Hsp90b1 (heat shock protein 90, beta (Grp94), member 1)",1,0.73,inactive
"Hsp90b1 (heat shock protein 90, beta (Grp94), member 1)",2,-1.48,inactive
"Hsp90b1 (heat shock protein 90, beta (Grp94), member 1)",3,-2.47,active
"Hsp90b1 (heat shock protein 90, beta (Grp94), member 1)",4,0.292,inactive
"Hsp90b1 (heat shock protein 90, beta (Grp94), member 1)",5,0.226,inactive
"Hsp90b1 (heat shock protein 90, beta (Grp94), member 1)",6,-3.31,active
Gdi2 (GDP dissociation inhibitor 2),1,13.1,active
Gdi2 (GDP dissociation inhibitor 2),2,-1.7,inactive
Gdi2 (GDP dissociation inhibitor 2),3,-3.45,active
Gdi2 (GDP dissociation inhibitor 2),4,3.42,active
Gdi2 (GDP dissociation inhibitor 2),5,1.32,inactive
Gdi2 (GDP dissociation inhibitor 2),6,1.06,inactive

In a second layout: entries from further up
target gene	reagent	TNF reporter z-score, mean	Outcome
Gdi2 (GDP dissociation inhibitor 2)	1	13.1	active
Gdi2 (GDP dissociation inhibitor 2)	2	-1.7	inactive
Gdi2 (GDP dissociation inhibitor 2)	3	-3.45	active

Further entries follow.
target gene,reagent,"TNF reporter z-score, mean",Outcome
Polr2b (polymerase (RNA) II (DNA directed) polypeptide B),1,2.68,active
Polr2b (polymerase (RNA) II (DNA directed) polypeptide B),2,-1.92,inactive
Polr2b (polymerase (RNA) II (DNA directed) polypeptide B),3,-5.09,active
Polr2b (polymerase (RNA) II (DNA directed) polypeptide B),4,0.0226,inactive
Polr2b (polymerase (RNA) II (DNA directed) polypeptide B),5,-2.66,active
Polr2b (polymerase (RNA) II (DNA directed) polypeptide B),6,-3.01,active
Nedd4,1,11.9,active
Nedd4,2,-3,active
Nedd4,3,-4.77,active
Nedd4,4,3.99,active
Nedd4,5,3.01,active
Nedd4,6,1.29,inactive
